This passage reports binding results from US20090098106A1.

Chains of the proteins cited; added tags and fusions are not shown. Lines headed by an entry give the natural chain unless they say otherwise; changes in a name come on top. A line that says so, or that is headed by a name, gives the form on record, which may keep a tag or linker.
UniProt P25788: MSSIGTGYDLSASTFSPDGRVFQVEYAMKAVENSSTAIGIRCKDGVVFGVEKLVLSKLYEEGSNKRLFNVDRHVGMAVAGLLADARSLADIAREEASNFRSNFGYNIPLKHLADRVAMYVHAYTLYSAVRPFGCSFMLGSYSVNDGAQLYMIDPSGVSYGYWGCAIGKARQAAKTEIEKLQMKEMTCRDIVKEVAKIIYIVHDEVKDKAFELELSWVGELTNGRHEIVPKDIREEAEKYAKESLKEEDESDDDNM
HC8 SS 243,250AA mutant (P25788, form named): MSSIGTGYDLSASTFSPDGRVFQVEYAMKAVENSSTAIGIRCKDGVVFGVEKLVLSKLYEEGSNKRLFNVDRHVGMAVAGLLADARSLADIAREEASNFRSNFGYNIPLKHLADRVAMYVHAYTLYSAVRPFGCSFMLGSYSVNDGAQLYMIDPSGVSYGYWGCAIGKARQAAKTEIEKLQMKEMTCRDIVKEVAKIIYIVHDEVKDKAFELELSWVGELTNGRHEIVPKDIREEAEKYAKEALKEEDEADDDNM
UniProt P25786: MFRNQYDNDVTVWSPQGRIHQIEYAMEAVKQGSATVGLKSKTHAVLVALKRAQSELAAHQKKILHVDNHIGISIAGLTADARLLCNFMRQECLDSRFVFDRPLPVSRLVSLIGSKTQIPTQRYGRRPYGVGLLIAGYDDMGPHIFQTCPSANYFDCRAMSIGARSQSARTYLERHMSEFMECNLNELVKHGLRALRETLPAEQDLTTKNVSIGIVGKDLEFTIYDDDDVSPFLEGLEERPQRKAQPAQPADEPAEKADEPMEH
UniProt Q99558: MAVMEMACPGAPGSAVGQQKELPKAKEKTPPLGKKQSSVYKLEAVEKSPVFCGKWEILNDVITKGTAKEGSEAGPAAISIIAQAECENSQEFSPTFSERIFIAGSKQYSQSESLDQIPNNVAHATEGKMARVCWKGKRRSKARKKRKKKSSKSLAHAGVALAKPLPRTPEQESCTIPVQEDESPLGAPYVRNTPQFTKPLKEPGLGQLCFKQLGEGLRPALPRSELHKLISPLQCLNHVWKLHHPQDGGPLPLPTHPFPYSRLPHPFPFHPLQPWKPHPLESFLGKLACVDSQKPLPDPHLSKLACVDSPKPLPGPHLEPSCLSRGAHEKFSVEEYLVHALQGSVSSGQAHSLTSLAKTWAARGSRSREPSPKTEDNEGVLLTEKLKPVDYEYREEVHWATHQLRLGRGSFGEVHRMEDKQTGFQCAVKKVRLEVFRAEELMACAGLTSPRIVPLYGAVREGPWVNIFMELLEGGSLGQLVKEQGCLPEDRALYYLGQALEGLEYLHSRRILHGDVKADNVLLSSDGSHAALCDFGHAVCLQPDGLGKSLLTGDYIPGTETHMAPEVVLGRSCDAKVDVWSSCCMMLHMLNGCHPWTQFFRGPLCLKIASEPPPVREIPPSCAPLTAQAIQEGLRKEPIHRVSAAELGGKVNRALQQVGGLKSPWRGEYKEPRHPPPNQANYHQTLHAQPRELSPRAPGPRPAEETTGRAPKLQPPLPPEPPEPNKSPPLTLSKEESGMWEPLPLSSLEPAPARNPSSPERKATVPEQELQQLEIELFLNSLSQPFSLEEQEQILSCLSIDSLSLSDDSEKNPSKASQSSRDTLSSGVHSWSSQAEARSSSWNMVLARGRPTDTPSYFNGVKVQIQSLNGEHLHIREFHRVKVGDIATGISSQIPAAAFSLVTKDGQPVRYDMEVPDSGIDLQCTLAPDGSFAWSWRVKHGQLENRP
UniProt Q9WUL6: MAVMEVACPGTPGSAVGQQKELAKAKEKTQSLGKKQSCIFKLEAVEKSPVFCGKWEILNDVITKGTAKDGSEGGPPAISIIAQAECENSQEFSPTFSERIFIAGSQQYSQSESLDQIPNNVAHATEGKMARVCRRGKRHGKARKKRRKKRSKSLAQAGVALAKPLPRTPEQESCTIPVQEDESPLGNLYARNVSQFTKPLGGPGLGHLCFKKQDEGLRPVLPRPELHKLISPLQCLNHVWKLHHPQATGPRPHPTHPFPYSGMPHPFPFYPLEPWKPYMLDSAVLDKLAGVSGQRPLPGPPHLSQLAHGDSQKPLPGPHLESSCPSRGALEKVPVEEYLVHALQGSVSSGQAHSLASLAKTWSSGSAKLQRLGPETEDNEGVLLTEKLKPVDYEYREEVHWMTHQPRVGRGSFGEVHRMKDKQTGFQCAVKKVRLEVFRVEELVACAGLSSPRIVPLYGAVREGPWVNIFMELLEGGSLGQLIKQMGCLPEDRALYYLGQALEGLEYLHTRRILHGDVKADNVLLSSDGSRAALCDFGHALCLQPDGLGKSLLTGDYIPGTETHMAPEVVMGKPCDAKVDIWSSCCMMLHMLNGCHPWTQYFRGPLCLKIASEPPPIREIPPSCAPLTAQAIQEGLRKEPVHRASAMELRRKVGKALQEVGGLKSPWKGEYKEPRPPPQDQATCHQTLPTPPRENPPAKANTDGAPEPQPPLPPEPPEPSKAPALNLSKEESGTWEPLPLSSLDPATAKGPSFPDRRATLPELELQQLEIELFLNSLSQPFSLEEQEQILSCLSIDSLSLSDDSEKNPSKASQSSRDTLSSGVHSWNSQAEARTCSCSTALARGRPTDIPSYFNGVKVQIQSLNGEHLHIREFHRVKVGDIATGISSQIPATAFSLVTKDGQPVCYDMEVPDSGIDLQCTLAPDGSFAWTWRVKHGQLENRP

These are yes or no findings as the source states them, for the method shown. For some assays here: Binding seen in cells or lysates may run through a third protein. Some binding calls cover weakened binding; strength is not graded here.

In assay [1] the target is HC8 SS 243,250AA mutant (human) (UniProt P25788). Nature of the assay: co-immunoprecipitation from 293T cells, Western blot.
A further assay concerns the target C2 proteasomal component (UniProt P25786). Nature of the assay: proteasomes precipitated from HeLa cell lysates with anti-C2 antibody, Western blot.
The target in the next assay is T1, TRAF2 (UniProt Q12933).
T1 sequence (looked up): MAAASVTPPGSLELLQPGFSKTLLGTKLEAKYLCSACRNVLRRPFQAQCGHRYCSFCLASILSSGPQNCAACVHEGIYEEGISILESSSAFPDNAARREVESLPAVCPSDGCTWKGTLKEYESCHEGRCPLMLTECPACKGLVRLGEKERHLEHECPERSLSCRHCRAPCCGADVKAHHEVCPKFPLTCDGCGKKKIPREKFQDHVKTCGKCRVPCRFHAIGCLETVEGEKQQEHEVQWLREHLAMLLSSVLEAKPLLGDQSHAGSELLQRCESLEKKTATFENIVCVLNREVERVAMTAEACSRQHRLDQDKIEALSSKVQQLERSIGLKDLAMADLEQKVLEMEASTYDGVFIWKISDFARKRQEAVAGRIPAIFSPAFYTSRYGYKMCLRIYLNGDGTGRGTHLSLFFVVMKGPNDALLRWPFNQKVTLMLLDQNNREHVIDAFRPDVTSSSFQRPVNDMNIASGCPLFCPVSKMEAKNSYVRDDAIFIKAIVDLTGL
Nature of the assay: yeast two-hybrid, β-gal colour, strain SFY526 (bait NIK-C-ter, prey TRAF2).

In assay [2] the target is HC8 (α7) subunit of the human 20S proteasome (human) (UniProt P25788). Description: co-immunoprecipitation from HeLa cells, Western blot.
Assay [3] shares this target. Description: co-immunoprecipitation from HeLa cells with anti-NIK monoclonal antibody, Western blot.

For the substance “NF-κB inducing kinase (NIK), human, full length (from UniProt Q99558 1-947) (enzyme)”, the binding entry (in assay [1]; in the assay with C2 proteasomal component) was “binds” each time.

In the case of “NIK-C-terminus (amino acids 624-947 of SEQ ID NO: 5) (from UniProt Q99558 624-947)”, the binding result with TRAF2 is “binds”.

For the substance “mouse NIK, full length (from UniProt Q9WUL6 1-942) (enzyme)”, the binding result in assay [2] and in assay [3] was “binds” throughout.
